Values quoted from earlier work as cited in patent publication US8021652B2, “Biodegradable branched polylactide derivatives capable of forming polymeric micelles, and their preparation method and use” (Samyang Corporation, priority 2003, dated 2011).

Conditions: drug alone in water, without polymer

- Water solubility: ≤ 10 µg/mL
SMILES: CC(=O)O[C@H]1C(=O)[C@@]2(C)[C@H]([C@H](OC(=O)c3ccccc3)[C@]3(O)C[C@H](OC(=O)[C@H](O)[C@@H](NC(=O)c4ccccc4)c4ccccc4)C(C)=C1C3(C)C)[C@]1(OC(C)=O)CO[C@@H]1C[C@@H]2O [paclitaxcel]
